Reference: PubChem BioAssay AID1347076 (National Center for Advancing Translational Sciences (NCATS), 2019)
The whole screen tested about 400,000 compounds, of which about 13,000 (3.2%) were called active. Inconclusive means that the source gave no clear call. Such entries were picked first, then a sample of the others. Calls follow the shape of the dose curve; as a rule, active = well fitted cell-killing curve with a large enough effect; inconclusive = small, poorly fitted or top-dose-only effect, or effect the other way; inactive = flat fitted curve, though single readings scatter. A potency beside an inconclusive call is a rough fit, not a confirmed value.

Assay: qHTS assay for MDR1-selective chemotherapeutics: Primary screen using the drug-selected MDR subline cells KB-V1; also: nearly all actives have a fitted effect of over 60% in size
Settings: KB-V1 MDR cells viability, CellTiter-Glo, 72 h; activity change, negative = cytotoxicity: at 46.1 µM (top of the series)
In short: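 KB-V1, DMEM (no phenol red) + 10% FBS; cpd pin-transferred, titration series; 72 h, 37 degrees C; CellTiter-Glo, luminescence. Data normalized, curve-fit.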
% is scaled to controls: 0 for no effect and ±100 for the full control effect; potency is read from the fitted curve at half-maximal effect.

Row | SMILES | Potency | activity change, negative = cytotoxicity
1 | COc1ccc(N2CCN(c3oc(Cc4ccccc4)nc3C#N)CC2)cc1 | inconclusive: 29.1 µM [cytotoxic, single point] | 
2 | Cc1ccc(N2C(S)=C(C#N)C(=O)NC23CCCCC3)cc1 | inconclusive: 16.4 µM [rising, partial curve, poor fit] | 
3 | O=C(Cc1ccccc1)Nc1cc([N+](=O)[O-])ccc1N1CCOCC1 | inconclusive: 18.4 µM [cytotoxic, partial curve, poor fit] | 
4 | CCCNC(=O)c1ccccc1NS(=O)(=O)c1ccc2c(c1)OCCO2 | inconclusive: 16.4 µM [cytotoxic, single point] | 
5 | C/C(=N/NC(=O)c1ccc(Br)o1)c1cccc(NC(=O)c2ccc(F)cc2)c1 | inconclusive: 6.51 µM [cytotoxic, full curve] | 
6 | CCCOn1c(-n2nc(C)cc2C)nc2ccccc2c1=O |  | inconclusive: -41.3%
7 | O=C1CCN(Cc2ccccc2)S(=O)(=O)c2ccc(F)cc21 | inconclusive: 18.4 µM [cytotoxic, partial curve, poor fit] | 
8 | Cc1ccc(C(C[N+](=O)[O-])Sc2ccc(N)cc2)cc1 (stereo unspecified) | inconclusive: 18.4 µM [cytotoxic, single point] | 
9 | Cc1c(C(=O)Nc2nnc(C3CC3)s2)oc2c(Cl)cccc12 | inconclusive: 18.4 µM [cytotoxic, single point] | 
10 | CC(C)n1c(=N)c(C(=O)NC2CCCCC2)cc2c(=O)n3ccccc3nc21 | inconclusive: 20.6 µM [rising, partial curve] | 
11 | COc1ccc(C=C2C(=O)c3ccccc3C2=O)cc1O | inactive | 
12 | CCC1CCCCN1CCCNC(=O)Cn1ncc2c([nH]c3ccc(C)cc32)c1=O (stereo unspecified) | inconclusive: 0.92 µM [rising, full curve] | 
13 | Nc1cnccn1 | inactive | 
14 | Cc1ccc(S(=O)Cc2ccc(C(=O)N3CCN(C4CCCCC4)CC3)o2)cc1 (stereo unspecified) |  | inconclusive: -7.79%
15 | O=C1[C@H]2[C@@H](C(=O)N1c1cc(Cl)cc(Cl)c1)[C@]1(C(=O)Nc3ccccc31)N1CCC[C@@H]21 | active: 14.6 µM | 
16 | C/C(=N\S(=O)(=O)c1ccc(C)cc1)NC(=S)Nc1ccc(C)cc1 | inconclusive: 29.1 µM [rising, single point] | 
17 | O=C(CNc1ccc(Cl)cc1)NNC(=S)NCc1ccccc1 | inconclusive: 18.4 µM [cytotoxic, partial curve] | 
18 | O=C(NNc1ncnc2c1cnn2-c1ccc(F)cc1)c1cccs1 | inconclusive: 20.6 µM [cytotoxic, single point] | 
19 | CS(=O)(=O)N(CC(=O)N1CCN(c2cccc(Cl)c2)CC1)C1CCCCC1 | inconclusive: 16.4 µM [cytotoxic, single point] | 
20 | Cc1cnc(NC(=O)COc2cccc3c2OC(C)(C)C3)s1 | inconclusive: 0.58 µM [cytotoxic, full curve, poor fit] | 
21 | CCCCCc1c(-c2ccc(F)cc2F)ncn1CCc1ccccc1OC | active: 13 µM | 
22 | CCc1cc(C(=O)OC)c(NC(=O)c2cc(Br)cs2)s1 | active: 16.4 µM | 
23 | Cc1n[nH]c(=O)c2ccccc12 | inconclusive: 29.1 µM [rising, single point] | 
24 | O=C(NCCc1ccc(F)cc1)c1cc(=O)c2ccccc2o1 | inconclusive: 14.6 µM [cytotoxic, partial curve] | 

Row | SMILES | Potency | activity change, negative = cytotoxicity
25 | COc1ccc(OCC(O)CN2CCN(c3ncccn3)CC2)cc1 (stereo unspecified) | inconclusive: 7.31 µM [cytotoxic, partial curve] | 
26 | COc1ccc(NCc2ccc([N+](=O)[O-])s2)c(OC)c1 | inactive | 
27 | Cc1nn(C(=O)c2cc([N+](=O)[O-])ccc2Cl)c(C)c1Br |  | inconclusive: 35.4%
28 | Cc1cccc(NC(=O)CSc2nc3ccccc3o2)c1 | inactive | 
29 | C=C1C=C(C(F)F)n2ncc(C(=O)Nc3ccc(Br)cc3C(F)(F)F)c2N1 | inactive | 
30 | Cc1ccc2c(CC(=O)NCc3cccs3)coc2c1 | inconclusive: 16.4 µM [cytotoxic, single point] | 
31 | CCNC(=S)N1C2CCC1CC(NC(=O)Nc1ccc(C(=O)OCC)cc1)C2 (stereo unspecified) | inconclusive: 0.731 µM [rising, full curve] | 
32 | O=C(CCc1ccc(O)cc1)NNC(=S)NCCc1ccccc1 |  | inconclusive: 29.4%
33 | Cc1ccccc1OCc1ccc(-c2nc(C#N)c(N3CCC(C(N)=O)CC3)o2)o1 | inactive | 
34 | CCCCNS(=O)(=O)NC(=O)C1=C(N2CCCC2)COC1=O | inconclusive: 16.4 µM [rising, partial curve] | 
35 | CN1CCN(C(=O)OC2CC3CC2[C@H]2CCCCN2C3=O)CC1 (stereo partly specified) | inactive | 
36 | ClCCn1cnc2c(SCc3ccccc3Cl)ncnc21 | inconclusive: 0.731 µM [cytotoxic, full curve, poor fit] | 
37 | CC1(Oc2ccc(Cl)cc2)CCN(Cc2csc3ccccc23)C1 (stereo unspecified) | inactive | 
38 | COc1ccc(Cl)cc1NC(=O)CN(C)C(=O)c1cc2c(s1)CCCC2 | active: 13 µM | 
39 | COc1ccc2nc(NC(=O)c3cc(S(=O)(=O)N4CCOCC4)ccc3C)sc2c1 | inconclusive: 7.31 µM [cytotoxic, single point] | 
40 | COc1ccc(NC(=O)c2ccc(NC(=O)CCS(=O)(=O)c3cccs3)cc2)cc1 | inconclusive: 18.4 µM [rising, single point] | 
41 | COc1ccc(/C=C/C(=O)c2ccc(Cl)s2)cc1O | inconclusive: 18.4 µM [cytotoxic, single point] | 
42 | Cc1ccc(C)c(S(=O)(=O)N2CCCCC2CCNC(=O)C(=O)NC2CCCC2)c1 (stereo unspecified) | inconclusive: 1.84 µM [cytotoxic, partial curve, poor fit] | 
43 | COc1cc(C)ccc1OCC(=O)OCC(=O)c1cc(C)n(CC2CCCO2)c1C (stereo unspecified) | inconclusive: 29.1 µM [rising, single point] | 
44 | CC(=O)Nc1ccc(S(=O)(=O)NCCS(=O)(=O)N2CCN(c3ccccc3F)CC2)cc1 | inactive | 
45 | Cc1ccc(C(=O)OCC(=O)NC2CCS(=O)(=O)C2)c(C)c1 (stereo unspecified) | inconclusive: 29.1 µM [rising, single point] | 
46 | COc1ccc(NC(=O)CN(C)S(=O)(=O)c2ccc(Br)s2)cc1 | inconclusive: 13 µM [cytotoxic, partial curve] | 
47 | O=C(NC1CCCc2ccccc21)C1CCN(S(=O)(=O)c2cccc(C(F)(F)F)c2)CC1 (stereo unspecified) | active: 23.1 µM | 
48 | CC(=O)NCc1ccc(S(=O)(=O)NC(C(=O)O)C(C)C)cc1 (stereo unspecified) | inactive | 

Row | SMILES | Potency | activity change, negative = cytotoxicity
49 | Cc1onc(C(=O)N2CCOCC2)c1[N+](=O)[O-] | inconclusive: 25.9 µM [rising, partial curve, poor fit] | 
50 | COc1ccccc1Cc1c(-c2ccc(C)cc2)nc2ccc(Cl)cn12 | inconclusive: 29.1 µM [cytotoxic, single point] | 
51 | Cc1ccc(S(=O)(=O)N(c2nc(NC(C)C)nc(NC(C)C)n2)n2cnnc2)cc1 | inconclusive: 7.31 µM [cytotoxic, partial curve] | 
52 | COc1ccccc1NC(=O)CSCc1ccc([N+](=O)[O-])cc1 | inactive | 
53 | Cc1sc2ncnc(N3CCC(C(=O)Nc4ccc(Cl)c(Cl)c4)CC3)c2c1C | inactive | 
54 | Cc1ccc(Oc2cc(NC(=O)CCCn3nc([N+](=O)[O-])c(Cl)c3C)cc([N+](=O)[O-])c2)cc1 | inconclusive: 11.6 µM [cytotoxic, partial curve] | 
55 | COc1ccc(CCNc2oc(COc3ccccc3F)nc2C#N)cc1OC | inactive | 
56 | CC(C)C[C@@H](CN1CCCC1CN1C(=S)NC[C@@H]1Cc1ccc(O)cc1)N1C[C@H](Cc2ccc(O)cc2)N(CC2CCCCCC2)C1=S (stereo partly specified) | inconclusive: 20.6 µM [cytotoxic, single point] | 
57 | O=C1C(C2=NC(c3ccccn3)C3C(=O)N(c4ccccc4)C(=O)C23)=C(O)c2ccccc21 (stereo unspecified) | inactive | 
58 | CN(C)c1ccc(/C=C/N2C=CCc3c2ccc2ccccc32)cc1 | inconclusive: 23.1 µM [cytotoxic, single point] | 
59 | Cc1cc(NS(=O)(=O)c2ccc(NC(=S)NC(=O)c3ccc(C(C)(C)C)cc3)cc2)no1 | active: 23.1 µM | 
60 | Cc1ccc(C)c(CN2C(=O)c3ccccc3S(=O)c3ccc(C(=O)NCCC4=CCCCC4)cc32)c1 (stereo unspecified) | inactive | 
61 | CCOC(=O)c1c(S(=O)(=O)NCC(=O)N(C)c2ccc(C)cc2)c(C)n(C)c1C | inconclusive: 23.1 µM [cytotoxic, partial curve, poor fit] | 
62 | CN(CCc1ccccn1)C(=O)CCC1CCCN(C(=O)c2ccsc2)C1 (stereo unspecified) | inactive | 
63 | CCc1c(C)[nH]n(-c2nc(-c3cccc([N+](=O)[O-])c3)cs2)c1=O | active: 16.4 µM | 
64 | O=C(COc1cccnc1[N+](=O)[O-])Nc1cc(Cl)ccc1Cl | inconclusive: 29.1 µM [rising, single point] | 
65 | CCC(c1nnc(SCC(=O)NC2CCCCC2)n1Cc1ccccc1)N(C)C (stereo unspecified) | inactive | 
66 | Cc1c(/C=N/NC(=O)c2ccccc2O)c2ccccn2c1C(=O)c1ccc(F)cc1 | inconclusive: 25.9 µM [cytotoxic, partial curve, poor fit] | 
67 | CCCC(=O)N1CCCC1(C)C(=O)Nc1ccc(-n2cncn2)cc1 (stereo unspecified) | inactive | 
68 | Cc1ccc(F)cc1-c1nc(NC(C)C)nc2cc(-c3ccccc3)sc12 | inconclusive: 29.1 µM [cytotoxic, single point] | 
69 | CC(=O)N(C)c1ccc(NC(=O)N2CCOCC2)cc1 |  | inconclusive: 36.5%
70 | CCOc1ccc(NC(=O)CN2CCN(C3c4ccccc4-c4ccccc43)CC2)cc1 | active: 18.4 µM | 
71 | CC1C(=O)N2CCCc3cc(S(=O)(=O)N4CCN(c5cccc(Cl)c5)CC4)cc1c32 (stereo unspecified) | inconclusive: 10.3 µM [cytotoxic, partial curve] | 

Sorted by length of the SMILES (ascending): part of the list above.
Row | SMILES | Potency | activity change, negative = cytotoxicity
28 | Cc1cccc(NC(=O)CSc2nc3ccccc3o2)c1 | inactive | 
48 | CC(=O)NCc1ccc(S(=O)(=O)NC(C(=O)O)C(C)C)cc1 (stereo unspecified) | inactive | 
10 | CC(C)n1c(=N)c(C(=O)NC2CCCCC2)cc2c(=O)n3ccccc3nc21 | inconclusive: 20.6 µM [rising, partial curve] | 
